Test results as given in PubChem BioAssay AID1671190 (National Center for Advancing Translational Sciences (NCATS), 2021).
Values joined by “and” are separate entries in the source; they are usually repeats but may differ in a detail not shown here. Identical values can stand only once. The whole screen tested about 580,000 compounds, of which about 6,100 (1.1%) were called active. Inconclusive results, whose numbers are uncertain, are shown with a selection of clear calls. The call rests on the fitted dose curve; in most records, active means well fitted inhibition curve with a large enough effect; inconclusive means small, poorly fitted or top-dose-only effect, or another doubt; inactive means no such curve, though single readings can be large or run the other way. Potencies beside an inconclusive call are fits to weak or partial responses and may not hold up. Some structures have more than one record in an assay (separate samples or runs), and their calls can disagree.

Chains of the proteins cited; added tags and fusions are not shown. Lines headed by an entry give the natural chain unless they say otherwise; changes in a name come on top.
UniProt P18054: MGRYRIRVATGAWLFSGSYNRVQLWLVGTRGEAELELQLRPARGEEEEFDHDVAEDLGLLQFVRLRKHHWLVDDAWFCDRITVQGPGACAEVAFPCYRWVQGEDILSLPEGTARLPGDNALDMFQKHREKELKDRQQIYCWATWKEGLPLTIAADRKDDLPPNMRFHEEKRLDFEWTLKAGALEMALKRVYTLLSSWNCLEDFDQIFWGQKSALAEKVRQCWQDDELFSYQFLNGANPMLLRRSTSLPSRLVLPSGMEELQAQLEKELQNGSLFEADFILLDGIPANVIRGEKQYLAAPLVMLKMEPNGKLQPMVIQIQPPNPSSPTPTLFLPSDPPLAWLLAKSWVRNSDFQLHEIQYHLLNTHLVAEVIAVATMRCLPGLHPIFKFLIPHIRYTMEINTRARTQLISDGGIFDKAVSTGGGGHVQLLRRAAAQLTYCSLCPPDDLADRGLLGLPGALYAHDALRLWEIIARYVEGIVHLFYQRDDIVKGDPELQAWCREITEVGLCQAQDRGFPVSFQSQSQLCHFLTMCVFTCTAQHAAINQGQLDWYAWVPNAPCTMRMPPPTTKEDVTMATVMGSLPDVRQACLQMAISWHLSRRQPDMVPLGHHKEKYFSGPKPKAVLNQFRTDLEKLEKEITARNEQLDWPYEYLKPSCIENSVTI

biological target: Polyunsaturated fatty acid lipoxygenase ALOX12 (Homo sapiens) (UniProt P18054); assay: Primary qHTS assay for inhibitors of human arachidonate 12S-lipoxygenase (ALOX12): Round 2; settings: purified 12hLO, xylenol orange hydroperoxide absorbance; activity change, negative = inhibition: at 108 µM (top of the series)
In short: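 Purified human 12hLO (150 nM final) in 25 mM Hepes, 0.01% Triton X-100, pH 7.0 was preincubated 15 min at room temperature with compound. Then 40 uM arachidonic acid was added, 30 min. Hydroperoxide was read by Fe-XO absorbance ratio 573/405 nm.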
On the % scale 0 is the no-effect control and ±100 the full control effect; potency means the concentration at half of the fitted maximal effect.

How did the Potency turn out when CCCC(=O)C1C(=O)NC(=O)NC1=O was run?
The Potency was inconclusive: 3.55 µM [inhibitor, full curve, poor fit].

Which activity change, negative = inhibition does the source give for CCN1CCCCC12Cc1ccccc1CN(C(=O)Cc1ccc(O)cc1)C2 (stereo not drawn) here?
The activity change, negative = inhibition was inactive: 7.55% [at 6.33 µM].

How did the Potency turn out when CCOC(=O)C1=C(N)Oc2c(c(=O)oc3ccccc23)C12C(=O)Nc1ccc(Cl)cc12 (stereo not drawn) was run?
Its Potency is inconclusive: 79.4 µM [inhibitor, partial curve, poor fit].

With COc1ccc(CCNCc2cccc(Cl)c2)cc1 as the compound, how does the Potency read?
The Potency was inconclusive: 50.1 µM [inhibitor, partial curve, poor fit].

For CCOc1ccc(CN(CCc2ccc3c(c2)OCO3)Cc2ccc(CC)cc2)cc1, which Potency is on record?
The Potency was inconclusive: 1.78 µM [inhibitor, full curve, poor fit].

COP(=S)(OC)Oc1ccc(S(=O)(=O)N(C)C)cc1 was tested. Which Potency did it give?
Its Potency is active: 11.2 µM.

Which Potency does the source give for COCCOc1ccc2c(n1)CCNC2 here?
Its Potency is inconclusive: 39.8 µM [inhibitor, single point].

Which Potency does the source give for COc1ccc(C(=O)O/N=C(/C(N)=O)P(=O)(OC(C)C)OC(C)C)cc1 here?
The Potency was inconclusive: 112 µM [inhibitor, single point].

Which Potency does the source give for CCN1CCN(Cc2cc(Br)cc(Br)c2O)CC1 here?
Its Potency is inconclusive: 39.8 µM [inhibitor, partial curve, poor fit].

Cc1noc(C)c1COc1ccc(CC(=O)N2CCN(CC(=O)N3CCOCC3)CC2)cc1 was tested. Which “activity change, negative = inhibition” value did it give?
Its value is inactive: -36.5%.

How did the Potency turn out when CC(=O)C1C2c3ccccc3O[C@@]1(C)N=c1s/c(=C/c3ccoc3)c(=O)n12 (stereo partly drawn) was run?
The Potency was inconclusive: 79.4 µM [inhibitor, single point].

For CCC1(CC(C)C)C(=O)NC(=S)NC1=O, which Potency is on record?
The Potency was inconclusive: 79.4 µM [inhibitor, single point].

For COc1ccc2[nH]cc(CCNCc3cccnc3)c2c1, which Potency is on record?
The Potency was inconclusive: 35.5 µM [inhibitor, partial curve, poor fit].

O=C1NCN(c2ccccc2)C12CCN(C(c1cccs1)c1nnnn1Cc1ccccc1)CC2 (stereo not drawn) was tested. Which Potency did it give?
Its Potency is inconclusive: 79.4 µM [inhibitor, partial curve, poor fit].

How did the Potency turn out when CN1CC(C(=O)c2ccc([N+](=O)[O-])cc2)C(c2ccc(Cl)cc2)C1 (stereo not drawn) was run?
Its Potency is inconclusive: 44.7 µM [inhibitor, partial curve, poor fit].

How did the Potency turn out when CCOC(=O)[C@]12Cc3cc4ccccc4cc3[C@H]1N(Cc1ccccc1)C(=O)c1cc(OC)ccc12 was run?
Its Potency is inconclusive: 44.7 µM [inhibitor, partial curve, poor fit].

Which Potency does the source give for COc1ccc(CC(C)NCCC(c2ccccc2)c2ccccc2)cc1 (stereo not drawn) here?
The Potency was inconclusive: 126 µM [inhibitor, single point].

With C=CCn1c(O)c(C(=O)CCCCCC)c(=O)[nH]c1=O as the compound, how does the “activity change, negative = inhibition” value read?
The value was inactive: 0%.

O=C(Cc1ccccc1)N1CCN(CC2CC3C=CC2C3)CC1 (stereo not drawn) was tested. Which Potency did it give?
Its Potency is inconclusive: 0.562 µM [inhibitor, full curve, poor fit].

For C[C@H]1CCC/C=C/[C@@H]2C[C@H](O)C[C@H]2[C@H](O)/C=C/C(=O)O1, which Potency is on record?
The Potency was “inactive”.

O=[N+]([O-])c1cnc2ccc3ccccc3c2c1 was tested. Which Potency did it give?
Its Potency is inconclusive: 112 µM [inhibitor, partial curve, poor fit].

For CC(C)(C)n1cccc1/C=C1\C(=O)NC(=O)N(c2ccccc2)C1=O, which Potency is on record?
Its Potency is inconclusive: 25.1 µM [inhibitor, partial curve, poor fit].

For CC[C@H]1CN2CC[C@H]1C[C@@H]2COC(=O)Nc1ccc(C(C)(C)C)cc1, which Potency is on record?
Its Potency is active: 44.7 µM.

With O=c1[nH]c(=O)n(C2CCCCC2)c(O)c1C1NCCc2ccccc21 (stereo not drawn) as the compound, how does the “activity change, negative = inhibition” value read?
The value was inactive: 0%.

How did the Potency turn out when CCOc1cc(C2C(C#N)=C(N)Oc3c2c(=O)oc2ccccc32)ccc1OC(=O)c1cccs1 (stereo not drawn) was run?
The Potency was inconclusive: 79.4 µM [inhibitor, partial curve, poor fit].

For CCOP(=S)(OCC)SCC(=O)NC(C)(CC)C(=O)O (stereo not drawn), which Potency is on record?
Its Potency is inconclusive: 0.178 µM [inhibitor, full curve, poor fit].

For C[C@@H]1CC2(CCCC[N+]2(C)C)C[C@H]1C, which Potency is on record?
The Potency was inconclusive: 50.1 µM [inhibitor, partial curve, poor fit].

Which Potency does the source give for O=S(=O)(NC[C@H]1C[C@@H]2CCN1C[C@@H]2CN1CCCCC1)c1ccccc1 here?
Its Potency is inconclusive: 15.8 µM [inhibitor, full curve, poor fit].

With CN1CCCCC1c1ccc(-c2cccnc2)nc1 (stereo not drawn) as the compound, how does the Potency read?
Its Potency is inconclusive: 35.5 µM [inhibitor, partial curve, poor fit] and inconclusive: 5.01 µM [inhibitor, full curve].

With Cn1c(O)c(C(=O)c2ccccc2F)c(=O)n(C)c1=O as the compound, how does the Potency read?
Its Potency is inconclusive: 56.2 µM [inhibitor, partial curve, poor fit].

For CCc1ccc(/C=C(/C#N)C(N)=S)cc1, which Potency is on record?
The Potency was inconclusive: 44.7 µM [inhibitor, partial curve, poor fit].

With CC(N)Cc1cn(Cc2ccccc2)c2ccccc12 (stereo not drawn) as the compound, how does the Potency read?
The Potency was inconclusive: 35.5 µM [inhibitor, partial curve, poor fit].

COP(=O)(OC)/C(C=O)=N/Nc1ccc([N+](=O)[O-])cc1 was tested. Which Potency did it give?
Its Potency is inconclusive: 50.1 µM [inhibitor, partial curve, poor fit].

CNCCCc1ccccc1 was tested. Which “activity change, negative = inhibition” value did it give?
The value was inactive: 5.56%.

CCCCCCC(=O)N/N=C/c1c(O)n(C(C)CC)c(=S)[nH]c1=O (stereo not drawn) was tested. Which Potency did it give?
Its Potency is inconclusive: 89.1 µM [inhibitor, partial curve, poor fit].

CC(C)c1ccc(NC(=O)OC[C@H]2C[C@@H]3CCN2C[C@@H]3c2cc(C3CCCCC3)nn2C)cc1 was tested. Which Potency did it give?
Its Potency is inconclusive: 50.1 µM [inhibitor, partial curve, poor fit].

For Nc1c(C(=O)Nc2cccc(Br)c2)sc2nc3c(cc12)N1CCC3CC1, which Potency is on record?
The Potency was inconclusive: 8.91 µM [inhibitor, partial curve, poor fit].

How did the “activity change, negative = inhibition” value turn out when COC(=O)C1=C(c2cccc(OCc3ccccc3)c2)C[C@@H]2CC[C@H]1N2C(=O)NCc1ccc2[nH]ccc2c1 was run?
The value was inactive: 5.57%.

How did the Potency turn out when CCOc1cc(CNCCc2ccccc2F)ccc1OC was run?
The Potency was inconclusive: 0.447 µM [inhibitor, full curve, poor fit].

For Cc1ccc(C)c(S(=O)(=O)N2[C@H]3CC[C@@H]2c2cnc(-c4ccccc4)nc2C3)c1, which Potency is on record?
The Potency was inconclusive: 5.01 µM [inhibitor, full curve].

For Cc1c(C=O)c(C)n(C(C)C)c1C, which Potency is on record?
The Potency was inconclusive: 44.7 µM [inhibitor, partial curve, poor fit].

For CCc1ccc2c(CN3CC=C(c4ccccc4)CC3)cc(=O)oc2c1, which Potency is on record?
Its Potency is inconclusive: 35.5 µM [inhibitor, partial curve, poor fit].

How did the Potency turn out when Cc1cc(C=C2C(=O)NC(=O)NC2=O)c(C)n1-c1cccnc1 was run?
Its Potency is inconclusive: 39.8 µM [inhibitor, partial curve].

With O=C(Cc1cccc(F)c1)N1[C@H]2CC[C@@H]1c1cnc(-c3ccc(F)cc3)nc1C2 as the compound, how does the “activity change, negative = inhibition” value read?
Its value is inactive: 17%.

CN(C)/C=C1/C(=O)NC(=O)N(CCNc2ncc(C(F)(F)F)cc2Cl)C1=O was tested. Which Potency did it give?
The Potency was inconclusive: 50.1 µM [inhibitor, partial curve, poor fit].

With Brc1ccc2[nH]cc(/C=N/N3CCCCC3)c2c1 as the compound, how does the Potency read?
Its Potency is inconclusive: 79.4 µM [inhibitor, partial curve, poor fit].

With O=C(Nc1ccc(Cl)cc1)N1CC1 as the compound, how does the Potency read?
The Potency was inconclusive: 89.1 µM [inhibitor, partial curve, poor fit].

For O=C1CO[C@H]2CN(Cc3ccncc3)C[C@H]2N1Cc1ccccc1, which Potency is on record?
The Potency was inconclusive: 79.4 µM [inhibitor, partial curve, poor fit].

O=C(O)c1cccc2c1NC(c1cccc([N+](=O)[O-])c1)C1CC(Sc3ccccc3[N+](=O)[O-])C(Cl)C21 (stereo not drawn) was tested. Which Potency did it give?
The Potency was active: 8.91 µM.

CCCSc1ncc(CN2CCCC3(CCNC3)C2)cn1 (stereo not drawn) was tested. Which Potency did it give?
The Potency was inconclusive: 11.2 µM [inhibitor, partial curve, poor fit].

For O=c1[nH]c(=S)[nH]c(O)c1/C=N/N1CCOCC1, which Potency is on record?
The Potency was inconclusive: 89.1 µM [inhibitor, partial curve, poor fit].

Clc1ccc(N2CCN(Cc3ccccc3Cl)CC2)cc1 was tested. Which Potency did it give?
Its Potency is inconclusive: 0.794 µM [inhibitor, full curve, poor fit].

CC1(C)C(C(=O)N2CCN(c3ccc(Cl)cc3)CC2)C1(C)C was tested. Which “activity change, negative = inhibition” value did it give?
The value was inactive: 0%.

COc1ccccc1-c1ccc(N2CC3CC(C2)c2cccc(=O)n2C3)nn1 (stereo not drawn) was tested. Which “activity change, negative = inhibition” value did it give?
The value was inactive: 35.4%.

For CCC(=Nc1ccc(OC)cc1OC)c1c(O)[nH]c(=O)[nH]c1=O, which “activity change, negative = inhibition” value is on record?
The value was inactive: 0%.

For CCNC(=S)N(C)CCc1cc2c(c(OC)c1C=C1C(=O)N(C)C(=O)N(C)C1=O)OCO2, which Potency is on record?
Its Potency is inconclusive: 39.8 µM [inhibitor, partial curve, poor fit].

With Nc1ncc([N+](=O)[O-])s1 as the compound, how does the Potency read?
The Potency was inconclusive: 50.1 µM [inhibitor, single point].

For O=C(COc1ccc(Br)cc1)N1CCN(Cc2ccc3c(c2)OCO3)CC1, which Potency is on record?
The Potency was inconclusive: 0.282 µM [inhibitor, full curve, poor fit].

How did the Potency turn out when COc1ccc2[nH]cc(CCN)c2c1 was run?
The Potency was inconclusive: 56.2 µM [inhibitor, partial curve, poor fit].

With Cc1cccc2sc(NC(=O)c3cccn(Cc4ccccc4)c3=O)nc12 as the compound, how does the Potency read?
The Potency was inconclusive: 100 µM [inhibitor, partial curve, poor fit].

With O=S(=O)(NC[C@H]1C[C@@H]2CCN1C[C@@H]2CN1CCOCC1)c1ccc(Cl)cc1 as the compound, how does the “activity change, negative = inhibition” value read?
Its value is inactive: -2.02% [at 176 µM].

How did the Potency turn out when N#Cc1cccc(NC(=O)N2CCCC3(CCN(C(=O)Oc4ccccc4)CC3)C2)c1 was run?
The Potency was inconclusive: 15.8 µM [inhibitor, single point].

For COc1c(OP2(=S)OCC(C)(C)CO2)cnn(C2CCCCC2)c1=O, which “activity change, negative = inhibition” value is on record?
The value was inactive: -3.5%.
